# Results: PubChem BioAssay AID540256 (National Center for Advancing Translational Sciences (NCATS), 2011)
# Among all 300,000 compounds or so, about 3,700 (1.2%) were called active. The shares of active, inactive and inconclusive entries below differ from those in the screen. Calls come from the whole dose curve; tested in HEK293 cells. Potencies beside an inconclusive call are fits to weak or partial responses and may not hold up.
# Test: qHTS for Inhibitors of binding or entry into cells for Lassa Virus; note: nearly all actives have a fitted effect of over 50% in size
# Conditions: Lassa virus pseudotype entry inhibition, cell reporter; series mostly up to 37.9 µM
# Potency is the fitted concentration of half-maximal effect.
row,SMILES,Potency
1,Cc1cc(C)c(S(=O)(=O)N2CCCC2)c(C)c1,inactive
2,O=C(N/N=C/c1ccccn1)c1cc(-c2ccncc2)nc2ccccc12,"inconclusive: 5.62 µM [inhibitor, single point]"
3,Cc1nn(-c2ccccc2)c(C)c1/C=N/n1c(-c2ccncc2)n[nH]c1=S,"inconclusive: 4.47 µM [inhibitor, full curve, poor fit]"
4,CCCCCCc1cc2cc(-c3nnc(-c4ccccc4O)o3)c(=O)oc2cc1O,inactive
5,CCOc1ccc(Nc2sc(C(=O)c3cccc(OC)c3)c(N)c2S(=O)(=O)c2ccccc2)cc1,"inconclusive: 1.26 µM [inhibitor, full curve, poor fit]"
6,CC1Cc2ccccc2N1C(=O)CSc1nnc(NC(=O)Cc2cccs2)s1 (centres undefined),"inconclusive: 29.1 µM [inhibitor, single point]"
7,Fc1ccc(/C=N/n2cnn(Cc3ccccc3Cl)c2=S)cc1,inactive
8,COc1cc(CN2CCN(CC3CC3)CC2CCO)cc(OC)c1 (centres undefined),"inconclusive: 1.26 µM [inhibitor, single point]"
9,Cc1cccc(NC(=S)N2CCN(S(=O)(=O)c3ccccc3)CC2)c1,"inconclusive: 10 µM [inhibitor, partial curve, poor fit]"
10,O=C(Nc1ccc(Oc2ncnc3cc(Cl)ccc23)nc1)c1ccc(F)cc1,"inconclusive: 6.31 µM [inhibitor, single point]"
11,Cc1cc(CCNC=O)c(C)c2c1oc1ccccc12,"inconclusive: 15.8 µM [activator, partial curve, poor fit]"
12,Cc1cccc(OCCCSc2nc3ccccc3[nH]2)c1,inactive
13,COc1ccc2c(c1)c(CC(=O)OC(C)C(=O)N(C)C)c(C)n2C(=O)c1ccc(Cl)cc1 (centres undefined),"inconclusive: 20 µM [inhibitor, partial curve, poor fit]"
14,O=C(/C=C\c1ccco1)Nc1cc([N+](=O)[O-])ccc1F,"inconclusive: 0.794 µM [inhibitor, full curve]"
15,Fc1ccccc1Cc1ccc(Cl)nn1,"inconclusive: 39.8 µM [inhibitor, partial curve, poor fit]"
16,COc1cc2c(cc1OC)C(c1cc3cc(C)ccc3[nH]c1=O)N(C(=O)c1ccco1)CC2 (centres undefined),"inconclusive: 35.5 µM [inhibitor, single point]"
17,CC1=C(C(=O)Nc2cc(Cl)c3[nH]ncc3c2)C(c2ccc(C(F)(F)F)cc2)CC(=O)N1 (centres undefined),"inconclusive: 0.445 µM [activator, full curve, poor fit]"
18,O=C(Nc1ccc(C(=O)N2CCCC2)cc1)c1ccc2c(c1)OCO2,inactive
19,O=C(Cn1c(SCC(=O)Nc2ccc(F)cc2)nc2ccccc21)NCc1ccccc1Cl,inactive
20,COc1ccc(OC)c(NC(=O)CSc2nc3ccccc3c(=O)n2CCC(=O)NC2CCCCC2)c1,"inconclusive: 5.62 µM [inhibitor, single point]"
21,CC(C)N(C(=S)Nc1cccc(C(F)(F)F)c1)C(C)c1ccccn1 (centres undefined),"inconclusive: 0.562 µM [inhibitor, single point]"
22,CC(C)(C)NC(=O)CSC(=Nc1cccc(F)c1)NC#N,"inconclusive: 1.26 µM [activator, full curve, poor fit]"

row,SMILES,Potency
1,O=C(NN=Cc1ccccc1C(=O)O)C(=O)NN=Cc1ccccc1C(=O)O,inactive
2,CCCCN(CCCC)CC1OCc2ccccc2CO1,"inconclusive: 23.1 µM [inhibitor, single point]"
3,COc1cc(C(=O)N(Cc2cccnc2)c2nc3cc(C)c(C)cc3s2)cc(OC)c1OC,"inconclusive: 1.12 µM [inhibitor, full curve, poor fit]"
4,COc1cc(Cl)c(C)cc1NC(=O)c1sc2nc(C)cc(C)c2c1N,"inconclusive: 35.5 µM [activator, single point]"
5,COc1ccc(CN(C)C(c2ccccc2)c2nnnn2-c2ccccc2C)c(OC)c1C (centres undefined),"inconclusive: 15.8 µM [inhibitor, single point]"
6,CN1c2ccccc2C(C)(C)C12C=Nc1c(cc(N3CCOCC3)c3ccccc13)O2 (centres undefined),"inconclusive: 35.5 µM [inhibitor, single point]"
7,COc1ccccc1NC(=O)C(Cc1ccccc1)NS(=O)(=O)c1cccc2nsnc12 (centres undefined),"inconclusive: 8.91 µM [inhibitor, partial curve]"
8,N=c1c2c(-c3ccccc3)c(-c3ccccc3)oc2ncn1CCCN1CCOCC1,"inconclusive: 23.1 µM [inhibitor, single point]"
9,O=C(O)c1cc(N=Nc2c(O)ccc3ccccc23)cc(C(=O)O)c1,"inconclusive: 3.26 µM [activator, partial curve]"
10,Cc1cccc(NC(=O)c2cc(Cl)nc3ccccc23)n1,inactive
11,Cc1ccn2nc(S(=O)(=O)Nc3c(F)cccc3F)nc2n1,"inconclusive: 32.6 µM [activator, partial curve, poor fit]"
12,CCOC(=O)c1c(-c2ccccc2)csc1NC(=O)CSc1nc(C)cc(C)n1,"inconclusive: 18.4 µM [inhibitor, partial curve]"
13,O=S(=O)(c1ccc(-n2cnnn2)cc1)N1CCN(c2cccc(C(F)(F)F)c2)CC1,inactive
14,O=C1c2ccccc2C(=O)N1CCSc1nc2ccccc2c(=O)n1CCCN1CCOCC1,inactive
15,Cc1ccc(NC(=O)CSc2nnc(CSc3nc(C)cc(C)n3)n2Cc2ccco2)c(C)c1,inactive
16,Cc1ccc(Cn2c(=O)n(-c3cc(C)cc(C)c3)c(=O)c3oc4ccccc4c32)cc1,inactive
17,CCn1c(SCc2nc3ccccc3c(=O)[nH]2)nc2ccccc21,"inconclusive: 35.5 µM [inhibitor, single point]"
18,Cc1ccc(S(=O)(=O)/C=C/C#N)cc1,active: 2.31 µM
19,CCCCC(c1nnnn1CS(=O)(=O)c1ccc(C)cc1)N1CCN(c2ccccc2)CC1 (centres undefined),"inconclusive: 22.4 µM [inhibitor, single point]"
20,Cc1cccc(N2CN(Cc3cccnc3)CNC2=S)c1C,inactive
21,O=C(N1CCOCC1)N1CCN(Cc2ccccc2)CC1,inactive
22,CCOc1ccc(CN(Cc2ccco2)S(=O)(=O)c2ccc(-n3cnnn3)c(OC)c2)cc1,"inconclusive: 4.61 µM [inhibitor, partial curve]"

# Nothing new here: entries from further up.
row,SMILES,Potency
2,CCCCN(CCCC)CC1OCc2ccccc2CO1,"inconclusive: 23.1 µM [inhibitor, single point]"
3,COc1cc(C(=O)N(Cc2cccnc2)c2nc3cc(C)c(C)cc3s2)cc(OC)c1OC,"inconclusive: 1.12 µM [inhibitor, full curve, poor fit]"
4,COc1cc(Cl)c(C)cc1NC(=O)c1sc2nc(C)cc(C)c2c1N,"inconclusive: 35.5 µM [activator, single point]"
